Data from PubChem BioAssay AID2685 (National Center for Advancing Translational Sciences (NCATS), 2010).
This is one part of the list. The main result of the screen is listed elsewhere. These columns were measured beside it and carry no call. The list favours compounds with an active or inconclusive main result. Potencies come from curve fits of mixed quality, noted in brackets.

Assay: qHTS Assay for Lipid Storage Modulators in Drosophila S3 Cells;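 on cell number change: cells counted by Cell Tracker Red CMTPX staining in the red channel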
Conditions: BODIPY lipid droplet fluorescence, 18-24 h; for cell number change: measured here: cell count max response, cells fed with added oleic acid
Procedure, shortened: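 Laser-scanning cytometry quantifies lipid droplet accumulation (500–530 nm total intensity; droplet/cell object ratio) in oleic acid-fed (400 uM added) Drosophila S3 cells treated with a concentration series. 20 uM Triacsin C defined 100% inhibition.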

[1] = measured here: cell number channel AC50, cells fed with added oleic acid
[2] = measured here: lipid fluorescence (Fed channel) AC50, cells fed with added oleic acid

SMILES | cell number change | AC50 [1] | AC50 [2]
Oc1c(CN2CCc3ccccc3C2)cc(Cl)c2cccnc12 | -48.3% | 16.4 µM [falling, partial curve] | 18.4 µM [falling, partial curve]
Cc1ccc(P(=O)(CSC(=N)N)c2ccc(C)cc2)cc1 | -12.1% | 0.13 µM [falling, full curve, poor fit] | 6.51 µM [falling, single point]
COc1ccc(C)cc1N/C(N)=N/c1nc(C)cc(C)n1 | 13.8% | – | 29.1 µM [falling, single point]
COc1ccc2c(c1OC)C(=O)OC2Nc1ncccc1C (configuration not stated) | -10.3% | – | 0.291 µM [falling, full curve, poor fit]
CC(C)N(Cc1nc(-c2ccc(Cl)cc2)no1)C(=O)/C=C/c1ccccc1 | 16.2% | – | 18.4 µM [rising, single point]
CC1Cc2ccccc2N1C(=O)COc1nc2ccccc2nc1N1CCOCC1 (configuration not stated) | 8.13% | – | 6.51 µM [rising, single point]
CN1/C(=C\C(=O)C[n+]2cccc(C(N)=O)c2)C(C)(C)c2ccccc21 | – | 0.146 µM [rising, full curve, poor fit] | 0.116 µM [rising, full curve, poor fit]
Cn1c(SCC(=O)NCCc2ccccc2)ncc(C(=O)Nc2ccccc2)c1=O | 9.11% | – | –
CCCn1c(=O)n(C)c(=O)c2c(SC(C)C(=O)NCC3CCCO3)nc(CC(C)C)nc21 (configuration not stated) | 124% | 14.6 µM [rising, partial curve] | –
CN(C)c1ccc(NC(=O)COC(=O)CCC(=O)c2ccc(F)cc2)cc1 | -7.55% | 7.31 µM [falling, single point] | 23.1 µM [falling, partial curve]
O=C(N/N=C\c1ccc([N+](=O)[O-])s1)c1cncc(Br)c1 | 16.9% | – | 14.6 µM [rising, single point]
COc1ccc(C(=O)C(C)Sc2nnc(C3CC3)n2C2CC2)cc1 (configuration not stated) | -20% | 0.731 µM [falling, single point] | –
O=C(O)c1cc2c(cc1NC(=O)c1ccccc1C(F)(F)F)OCCCO2 | 20.5% | – | –
O=C(CC1NCCN(Cc2ccccc2)C1=O)Nc1ccc(Cl)cc1 (configuration not stated) | 3.57% | 6.51 µM [falling, single point] | 6.51 µM [falling, single point]
CCN(C(=O)CSc1nnc2nc(C)cc(C)n12)c1ccccc1 | 13.9% | – | 4.11 µM [rising, full curve, poor fit]
O=C(O)c1ccc(NS(=O)(=O)c2ccc(C(=O)Nc3ccccc3)cc2)cc1 | 1.08% | 6.51 µM [rising, single point] | –
COc1ccc(OC)c(NC(=O)CN(Cc2ccccc2)S(C)(=O)=O)c1 | -20.8% | – | 22.4 µM [falling, partial curve, poor fit]
CNCC[C@H](Oc1ccc(C(F)(F)F)cc1)c1ccccc1 | – | – | 0.58 µM [rising, single point]
O=C(COc1ccc([N+](=O)[O-])cc1)Nc1ccc2c(c1)CCC2 | 16.6% | – | 2.91 µM [rising, partial curve]
COc1ccc(C(=O)NCCc2nnc(SCc3nc4ccccc4c(=O)[nH]3)n2C)cc1 | 4.87% | – | 6.51 µM [rising, single point]
CN1C(=S)NC(C)(C)CC1(C)c1ccc(O)cc1O (configuration not stated) | -7.15% | – | 2.59 µM [falling, partial curve]
COc1cc(OC)cc(C(=O)c2c(C)c(C#N)c3ccccn23)c1 | -33.3% | – | –
CCOc1ccc(C(C)=O)cc1CSc1nnnn1-c1ccc(O)cc1 | -7.39% | – | –
CC(=O)C1=C(O)C(=O)N(Cc2cccnc2)C1c1ccc(Cl)cc1Cl (configuration not stated) | 6.18% | – | 29.1 µM [rising, single point]
COc1ccc(-c2nnc(NC(=O)Cc3ccccc3)s2)c(OC)c1 | 14% | 0.0731 µM [falling, full curve, poor fit] | 0.082 µM [falling, full curve, poor fit]
CN(c1ccc(C(=O)Nc2ccccn2)cc1)S(=O)(=O)c1ccccc1 | -25.2% | 5.8 µM [falling, single point] | 0.291 µM [falling, full curve, poor fit]
CCCn1nc(NS(=O)(=O)c2cccc3nonc23)c2cc3cccc(C)c3nc21 | -5.31% | – | 29.1 µM [falling, single point]
Cc1noc(C)c1S(=O)(=O)N(CC(=O)NC1CCC(C)CC1)c1ccc(C(C)C)cc1 (configuration not stated) | -11.1% | – | 29.1 µM [falling, single point]

One compound at a time (already shown):
`O=C(O)c1ccc(NS(=O)(=O)c2ccc(C(=O)Nc3ccccc3)cc2)cc1` is listed with cell number change: 1.08%; AC50 [1]: 6.51 µM [rising, single point]
`O=C(O)c1cc2c(cc1NC(=O)c1ccccc1C(F)(F)F)OCCCO2` is listed with cell number change: 20.5%
